The text below walks through data of paper PMC9247460.

Amino acid sequences for entries named in this document (tags omitted). A change or cut given only in a name is not applied to a line headed by its entry.
UniProt P31946: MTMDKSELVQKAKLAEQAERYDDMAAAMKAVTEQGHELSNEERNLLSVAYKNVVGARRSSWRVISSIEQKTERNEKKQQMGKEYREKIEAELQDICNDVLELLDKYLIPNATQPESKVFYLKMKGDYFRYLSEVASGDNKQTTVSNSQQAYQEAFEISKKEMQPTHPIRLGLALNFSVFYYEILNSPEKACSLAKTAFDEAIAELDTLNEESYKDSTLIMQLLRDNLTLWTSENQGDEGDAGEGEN
UniProt Q09472: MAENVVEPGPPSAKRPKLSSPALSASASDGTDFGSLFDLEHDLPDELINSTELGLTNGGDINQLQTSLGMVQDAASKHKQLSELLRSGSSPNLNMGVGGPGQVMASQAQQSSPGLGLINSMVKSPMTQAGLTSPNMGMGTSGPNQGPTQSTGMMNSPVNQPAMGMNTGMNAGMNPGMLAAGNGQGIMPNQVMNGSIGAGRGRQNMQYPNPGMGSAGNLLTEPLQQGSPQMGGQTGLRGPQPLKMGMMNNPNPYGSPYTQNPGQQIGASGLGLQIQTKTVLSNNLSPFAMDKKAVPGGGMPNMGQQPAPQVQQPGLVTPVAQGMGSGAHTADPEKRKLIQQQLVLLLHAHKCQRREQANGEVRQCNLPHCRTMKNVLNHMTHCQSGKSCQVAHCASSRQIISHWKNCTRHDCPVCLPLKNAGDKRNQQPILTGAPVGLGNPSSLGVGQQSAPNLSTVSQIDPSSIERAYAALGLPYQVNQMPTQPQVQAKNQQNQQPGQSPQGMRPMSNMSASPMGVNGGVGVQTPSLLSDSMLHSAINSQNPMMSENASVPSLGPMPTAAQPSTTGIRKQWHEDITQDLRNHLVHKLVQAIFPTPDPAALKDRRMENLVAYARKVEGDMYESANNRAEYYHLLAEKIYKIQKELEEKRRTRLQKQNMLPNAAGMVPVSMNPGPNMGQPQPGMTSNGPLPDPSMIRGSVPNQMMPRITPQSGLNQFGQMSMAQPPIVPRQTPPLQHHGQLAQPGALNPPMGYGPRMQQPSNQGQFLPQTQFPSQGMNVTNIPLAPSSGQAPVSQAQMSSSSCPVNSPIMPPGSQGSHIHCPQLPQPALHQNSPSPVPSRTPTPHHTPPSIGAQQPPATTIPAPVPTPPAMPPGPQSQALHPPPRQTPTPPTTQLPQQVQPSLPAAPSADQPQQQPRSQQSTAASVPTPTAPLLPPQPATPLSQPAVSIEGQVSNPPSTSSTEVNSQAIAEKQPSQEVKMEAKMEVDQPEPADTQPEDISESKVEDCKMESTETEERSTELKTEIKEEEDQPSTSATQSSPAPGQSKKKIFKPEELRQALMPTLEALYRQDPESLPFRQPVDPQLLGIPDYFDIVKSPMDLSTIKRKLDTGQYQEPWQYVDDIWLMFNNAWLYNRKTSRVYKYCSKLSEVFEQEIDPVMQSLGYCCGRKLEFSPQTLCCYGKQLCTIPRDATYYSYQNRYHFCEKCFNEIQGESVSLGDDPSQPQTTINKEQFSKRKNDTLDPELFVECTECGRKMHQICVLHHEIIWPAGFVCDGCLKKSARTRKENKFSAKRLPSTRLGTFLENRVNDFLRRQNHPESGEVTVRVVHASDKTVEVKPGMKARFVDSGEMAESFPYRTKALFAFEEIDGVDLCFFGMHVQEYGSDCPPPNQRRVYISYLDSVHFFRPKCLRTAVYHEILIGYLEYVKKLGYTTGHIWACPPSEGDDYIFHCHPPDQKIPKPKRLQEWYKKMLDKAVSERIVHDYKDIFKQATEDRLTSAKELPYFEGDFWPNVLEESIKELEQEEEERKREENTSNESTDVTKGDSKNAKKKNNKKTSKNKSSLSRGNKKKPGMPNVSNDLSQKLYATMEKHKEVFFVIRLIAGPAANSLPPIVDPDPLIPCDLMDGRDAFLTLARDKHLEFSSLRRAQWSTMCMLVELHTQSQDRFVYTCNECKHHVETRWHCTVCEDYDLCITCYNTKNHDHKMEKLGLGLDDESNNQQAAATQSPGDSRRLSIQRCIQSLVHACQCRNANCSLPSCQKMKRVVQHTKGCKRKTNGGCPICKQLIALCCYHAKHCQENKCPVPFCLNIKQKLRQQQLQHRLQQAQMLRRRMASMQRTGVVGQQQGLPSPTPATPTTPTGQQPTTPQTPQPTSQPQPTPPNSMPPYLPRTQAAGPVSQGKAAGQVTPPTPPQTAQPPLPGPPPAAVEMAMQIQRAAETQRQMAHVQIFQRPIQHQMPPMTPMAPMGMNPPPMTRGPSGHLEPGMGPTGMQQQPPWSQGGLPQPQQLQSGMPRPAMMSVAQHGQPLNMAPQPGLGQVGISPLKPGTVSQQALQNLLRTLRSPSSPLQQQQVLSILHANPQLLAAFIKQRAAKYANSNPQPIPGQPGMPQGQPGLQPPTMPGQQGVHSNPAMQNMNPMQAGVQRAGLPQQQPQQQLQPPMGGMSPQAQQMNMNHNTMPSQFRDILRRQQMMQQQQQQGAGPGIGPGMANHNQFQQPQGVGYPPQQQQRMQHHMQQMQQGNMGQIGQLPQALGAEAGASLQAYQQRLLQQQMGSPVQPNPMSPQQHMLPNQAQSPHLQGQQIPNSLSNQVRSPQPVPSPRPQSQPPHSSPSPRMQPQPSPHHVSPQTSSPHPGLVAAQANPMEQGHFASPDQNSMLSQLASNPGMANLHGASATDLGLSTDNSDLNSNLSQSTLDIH

These are yes or no findings as the source states them, for the method shown. Binding seen in cells or lysates may run through a third protein. Here binding means that the protein was enriched with, or labelled near, the bait; the list need not be complete.

In this assay the target is 14-3-3β/α (YWHAB) (human (endogenous in U87MG)) (UniProt P31946). Kind of assay: affinity purification with mass spectrometry; Co-IP with anti-14-3-3β/α antibody from U87MG cell extracts, silver stain, specific protein band analysed by tandem mass spectrometry (LC-MS/MS).

Take “E1A binding protein p300 (EP300) (from UniProt Q09472 1-2414)”: the binding result is listed as “binds”.
